Test results: article PMC12336819
Results are given in words; binding and its absence hold for the method and conditions named. Binding seen in cells or lysates may run through a third protein. Some entries that bind do so weakly or less than the wild type.

By UniProt entry, the sequences of proteins in these tests, tags left out.
UniProt P40763: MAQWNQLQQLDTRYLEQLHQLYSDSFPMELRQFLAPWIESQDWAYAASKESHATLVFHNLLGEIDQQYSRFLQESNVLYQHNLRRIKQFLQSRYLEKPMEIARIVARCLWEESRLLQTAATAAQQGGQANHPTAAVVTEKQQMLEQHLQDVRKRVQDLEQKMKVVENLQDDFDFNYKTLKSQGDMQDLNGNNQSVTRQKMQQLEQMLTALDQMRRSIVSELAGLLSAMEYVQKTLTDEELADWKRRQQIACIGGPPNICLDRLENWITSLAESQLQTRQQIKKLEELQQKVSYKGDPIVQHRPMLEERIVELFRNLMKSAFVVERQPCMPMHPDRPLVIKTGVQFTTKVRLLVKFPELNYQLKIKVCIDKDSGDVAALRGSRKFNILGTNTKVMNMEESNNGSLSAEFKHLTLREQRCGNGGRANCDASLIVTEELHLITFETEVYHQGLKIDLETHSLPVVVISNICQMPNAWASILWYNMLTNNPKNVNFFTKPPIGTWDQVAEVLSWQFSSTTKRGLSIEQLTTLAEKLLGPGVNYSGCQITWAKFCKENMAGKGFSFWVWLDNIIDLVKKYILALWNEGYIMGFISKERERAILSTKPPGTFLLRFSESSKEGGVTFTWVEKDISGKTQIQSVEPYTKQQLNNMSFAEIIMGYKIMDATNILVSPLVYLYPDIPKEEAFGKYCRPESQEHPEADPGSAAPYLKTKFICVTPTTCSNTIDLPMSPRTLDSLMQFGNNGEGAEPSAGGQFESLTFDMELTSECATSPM

Target: polynucleotide kinase/phosphatase (PNKP) (human (endogenous in TNBC cell lines)) (UniProt Q96T60)
Assay: co-IP; anti-PNKP antibody (sc-271505) with 500 ug TNBC cell lysate overnight at 4 C, protein A/G-PLUS-agarose; IP buffer 1% NP-40, 20 mM Hepes pH 7.5, 100 mM NaCl, 5 mM MgCl2; Western blot for STAT3; cells in steady state or 24 hr after doxorubicin; control without anti-PNKP

Substance: STAT3 (from UniProt P40763 1-770)
- binding: binds
